Taken from: PubChem BioAssay AID1259308 (NCATS, 2017)

- Aim: 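Candidate targets for better recombinant protein yield in mammalian cells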 (primary screen)
- Cell system: human HEK293 embryonic kidney cells stably expressing firefly luciferase (HEK-CMV-Luc2-Hygro)
- Knock-down reagent: single siRNA against human genes, 0.8 pmol siRNA per well
- Timing: 72 h
- Measured: 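Luciferase light (ONE-Glo) measured on one replicate plate set and viability (CellTiter-Glo) on the other, scaled to a negative control siRNA, with robust z-scores and luciferase per cell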
- Scale: total luciferase, z-score and total luciferase, % of control: higher = more reporter protein produced; luciferase per cell, z-score: higher = more reporter output per viable cell; viable cells, % of control: higher = more viable cells
- Hit rule: 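An siRNA counts as active if its total luciferase robust z-score exceeds 3; genes with two or more such siRNAs out of three were retested with fresh siRNAs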
- Meaning of the calls: active = raised luciferase; inactive = no rise
In all, the deposit lists about 59,000 reagents; shown is a part drawn at random. Over the whole deposit, about 1,510 (2.6%) got an active call. 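Calls use total luciferase alone and ignore viability, so some active siRNAs may act by altering cell number.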 Reagents against one gene are numbered here.

gene,reagent,"total luciferase, z-score","total luciferase, % of control","luciferase per cell, z-score","viable cells, % of control",Call
CCN5,1,0.605,93.9,-0.0604,107,inactive
CCN5,2,1.46,111,1.47,84.1,inactive
CCN5,3,-0.772,66.5,-0.712,89.7,inactive
WNT8B,1,-2.28,36.5,-2.65,81.9,inactive
WNT8B,2,-0.00714,81.7,0.231,86,inactive
WNT8B,3,3.06,143,2.45,83.8,active
AGA,1,0.18,85.5,0.0653,93.9,inactive
AGA,2,-0.6,69.9,-1.12,105,inactive
AGA,3,-0.442,73.1,-1.22,112,inactive
DEPDC5,1,0.307,88,0.302,90.8,inactive
DEPDC5,2,-0.57,70.5,0.582,67.6,inactive
DEPDC5,3,-1.11,59.9,-0.796,82.5,inactive
PCLAF,1,-0.0689,80.5,-0.145,93.5,inactive
PCLAF,2,0.906,99.9,0.452,99.1,inactive
PCLAF,3,2.42,130,0.927,114,inactive
LOC649305 (retired record),1,-1.24,57.3,-1.3,90.1,inactive
LOC649305 (retired record),2,2.14,124,1.52,93.3,inactive
LOC649305 (retired record),3,0.924,100,1.32,79.1,inactive
PTK2B,1,0.88,99.4,0.826,89.4,inactive
PTK2B,2,-0.818,65.6,-0.413,81.8,inactive
PTK2B,3,-0.126,79.4,-0.153,92.4,inactive
MIEF1,1,-0.713,67.7,-0.615,89,inactive
MIEF1,2,-1.73,47.4,-1.05,69.9,inactive
MIEF1,3,-1.56,50.8,-1.2,77.8,inactive
VCL,1,-1.28,56.4,-2.1,109,inactive
VCL,2,-0.757,66.8,-0.886,94.3,inactive
VCL,3,-0.394,74.1,-0.916,105,inactive
NFKBIZ,1,-0.628,69.4,0.0675,76.2,inactive
NFKBIZ,2,0.359,89,0.136,96,inactive
NFKBIZ,3,-0.00615,81.8,0.0426,90.3,inactive
SGTB,1,0.667,95.1,0.719,88,inactive
SGTB,2,-0.168,78.6,-0.255,93.9,inactive
SGTB,3,-0.189,78.1,-0.483,99.1,inactive
WIPI1,1,0.274,87.3,0.307,90,inactive
WIPI1,2,-1.17,58.7,-1.72,103,inactive
WIPI1,3,-0.266,76.6,0.15,82.3,inactive
TBL1Y,1,0.776,97.3,0.596,93,inactive
TBL1Y,2,1.66,115,1.56,85.1,inactive
TBL1Y,3,-2.13,39.5,-1.89,72.5,inactive

2 of these entries, reformatted:
| gene | reagent | total luciferase, z-score | total luciferase, % of control | luciferase per cell, z-score | viable cells, % of control | Call |
| --- | --- | --- | --- | --- | --- | --- |
| WNT8B | 2 | -0.00714 | 81.7 | 0.231 | 86 | inactive |
| WNT8B | 3 | 3.06 | 143 | 2.45 | 83.8 | active |
